Consider 104 sequences from PubChem BioAssay AID1347423 (Functional Genomics Laboratory (NCATS/FGL), 2020).

About 210 (0.4%) of roughly 52,000 sequences were called active.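 How the source made its calls: active means gene whose silencing raises cell survival under the drug, median off-target-corrected z-score across its silencing RNAs 2 or more; inactive means the rest.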 Some of the results follow.

The nature of this experiment: Resistance to Poly (ADP-Ribose) Polymerase inhibitor: Gene Identification via Genome-wide siRNA Screen. The conditions noted are these: mouse BRCA2 R2336H ES cells, olaparib, CellTiter-Glo viability; hits give high values. The method in brief:
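Genome-wide siRNA screen (3 siRNAs/gene, 20 nM) in mouse ES cells carrying hypomorphic BRCA2 R2336H; olaparib 500 nM added 48 h post-transfection, CellTiter-Glo viability 72 h later. Normalized to plate-median negative control; MAD z-scores, gene median, seed-adjusted.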
(In general: In ATP-based viability assays light output follows the ATP content of the culture.)
On to GCUGACCGGCAUUUACCAUTT against Mcm2, for which the z-score was inactive: 0.0737.
To GCGAGAGCUUCUUAACUGUTT against Ssh2 belongs inactive: 0.487; to GCACUACAUUGUGGCUGUCTT against Itpr3, inactive: -0.713.
To GGGCAUAUGACUGAAACACTT against V1ra2 belongs inactive: -2.18; to GGACAGCAAGACCAACCUATT against Elavl2, inactive: -1.42; to “GGACAAAGAAAACAGCUGUTT against A630024B12Rik”, inactive: 0.945.
Consider “GCCGAUCAAGACAACUUCATT against 1700094C09Rik”, for which the z-score is inactive: 0.143.
With GUCACAAGCUGUCCAACAATT against Ndufa7, the z-score was inactive: -1.29.
To GCUAAGAAGAGGAUUCCAATT against Spag1 belongs inactive: -1.47; to GCAAUACUUAUCCAUUGCGTT against Msx3, inactive: -0.165.
With GGAGUGAUUAACCUAACUCTT against Crip3, the z-score is active: -0.183.
To CGUAUAAUAACUCCUUAUCTT against Hoxa1 belongs inactive: 0.0437; to GGCAAUCCACCAAGUACAATT against Ptpn8, inactive: -0.909; to “GGAGCUACUGUACCUUGCUTT against 5830426I05Rik”, inactive: -2.62.
To GCUUACAAUGAAUGAUGAUTT against Psme4 belongs inactive: 0.345.
Take GGCAUUUGCCAAGAAAAAUTT against BC013667: the z-score was inactive: 0.0672.
To “GGGUAUGUCGGAGACCUUUTT against 1600025D17Rik” belongs inactive: -0.612; to GCAUGUUGCAUCACAGGGATT against Zfp106, inactive: 0.12.
GCGGUGCUUAGAGCAACUGTT against Mxd3: the z-score is inactive: 0.527.
To GGUCUAUUUGACCUCUUAATT against Bcl2l13 belongs inactive: -1.84.
For GGAAAUCCGCUUCACCAUCTT against Efnb1, the z-score is inactive: 2.04.
To CGACAAACCCAAGAUCACGTT against Viaat belongs inactive: 1.57; to CGACCUCAAAGAUGUGACGTT against 5-Sep, inactive: -0.94; to GGAAAAGCAUAAAGAAAAGTT against Ralbp1, inactive: 0.488.
In the case of GAAAAAAUGCCAGCUGUGGTT against Sec61b, the z-score was inactive: -0.153.
To GCAAGGUGUAGAUUUUACATT against D0H4S114 belongs inactive: 0.419.
To “GCUUGAUGGAAUCUUCUAGTT against 1700030K09Rik” belongs inactive: 0.0701; to CCAGGACCUUAUCAGGUUUTT against Idh2, inactive: -0.58; to GGGCAUGGACAAAAAGAAGTT against Prpf3, inactive: 0.249.
To GGAAGCUUAAUUGUGCACATT against Zfp637 belongs inactive: -0.264.
Consider GCGAUUCUGUUGUUAGCUUTT against Rln1, for which the z-score is inactive: 0.621.
To GGUGUUAGCCUAGAAAAACTT against Fbxo43 belongs inactive: -0.797; to “GGAUUUCUGUGUGUCCACUTT against 9630020C08Rik”, inactive: 1.51.
To GGAGUACAGCAUCUCAGCATT against Cacng1 belongs inactive: -1.44; to CCAUGGGAUAUGAUUUACATT against Phf11, inactive: -0.621; to CCAUAAGGUAACCUGUACATT against Serpinb1c, inactive: -0.493.
To CCAUCUCAAACACCAAUCGTT against Timd4 belongs inactive: -1.42; to GCUCAUGUUGCAUGUUAAGTT against Idh3g, inactive: 0.648.
Regarding GGUCUUAAACAGUGUGACATT against AW049900, the z-score is inactive: -0.37.
To “CGAGUAUCCCGUCAAGUUGTT against 6820408C15Rik” belongs inactive: 0.935; to CCCUUAGAGCUCUUAAAGATT against Mcart1, inactive: 0.39.
Regarding GGAAAGUGGUUUUGUCCACTT against Ing5, the z-score is inactive: 1.74.
To GACCUACCAGAUGAAGGUCTT against V1rc25 belongs inactive: 0.288; to “CCUCUCUUUAACAGGUCACTT against 1700034H15Rik”, inactive: 0.382; to GGGUCUAUCAGCUACAUCATT against Acsl6, inactive: 2.35.
To CCACAGGGAUAGAUACUCCTT against Olfr566 belongs inactive: -0.184; to GCAAAGAGGCCUAAUUGAATT against B2m, inactive: 0.968.
To CGUGAAGAUUGACGUGUUUTT against Pcyox1 belongs inactive: 0.98.
As to CGAGAUCUUUCCUAGUUUUTT against Mad, the z-score was inactive: 0.982.
With CGCCGGAAGUUCUACCACUTT against BC010787, the z-score was inactive: -2.4.
To GUGGUCUUUAUCGGCAUGATT against Slc35c1 belongs inactive: -0.605.
To GGAGCUCAAGAACAGGAUGTT against Tna belongs inactive: 1.03.
To “GCCUCUAACAAAACUAGGCTT against 1100001I22Rik” belongs inactive: -3.05.
Take “GCACAGUUCCAACUUCGUUTT against 4932418K24Rik”: the z-score is inactive: 1.49.
To GGAAGUCCAAGAGAGGUUGTT against Dom3z belongs inactive: -0.826; to GGUGUAGAAAUAAAGUGAGTT against Mbl2, inactive: 0.272.
To GGGAUGCCAUCGUGUUUCUTT against Ccl17 belongs inactive: -0.78.
To GGCUUUUUGGCUCAAAAAUTT against Spg21 belongs inactive: 0.00256.
On to “CGAGAAAAACAACUCCUUUTT against C330039G02Rik”, for which the z-score was inactive: 0.649.
To GCAUAAUUUCAGUGGCAAATT against Fbxo12 belongs inactive: -0.254; to GGACAGUUCUAAAAUUCCCTT against Olfr780, inactive: -0.324; to GGUCUUUCUGGCAAUUCUCTT against Zfp31, inactive: -1.07.
To “GGUUGAAGCAGAAGAUAAUTT against 2210409M21Rik” belongs inactive: 0.872; to GGCCUUAACCUGAUAGUUGTT against Nt5m, inactive: 1.34; to CGUAAAUUCACCAAGGAGCTT against Slc19a1, inactive: 0.688.
To CGUUCUUCAUGAAACAUUCTT against Ryr3 belongs inactive: -1.49; to GCACUCGAAUUUCUUUACUTT against Slc23a2, inactive: 0.45.
As for CGGUUCCAACCUUGAAAAATT against H1fx, the z-score is inactive: 0.06.
With CCUCUACUUAAUGUGCAACTT against Npc1l1, the z-score was inactive: 1.51.
To CCACUCAAGCGGUAAGGAUTT against Slc22a1 belongs inactive: -0.343; to GGAGAGAAGUGACAACGAATT against Adamts8, inactive: -0.13.
To GGUUCCGUUUAAUGAAGUGTT against Fxr1h belongs inactive: 0.913; to GGGUCAGAAAAGUCUGUCATT against Vangl1, inactive: -1.46; to CCUGACCGUUAACAGCUGUTT against Aamp, inactive: -0.0169.
To CCGGAGUGACCAUAUUCGUTT against Fgr belongs inactive: 0.258; to GGCGAUGUGACCAUUACAATT against Cct4, inactive: -2.9; to “GCUGCUUUAGCUUAGUUUUTT against D17H6S56E-3”, inactive: 0.943.
GCAUCUAUAAUUCUAUACCTT against BC023105: the z-score is inactive: 0.491.
For the sequence GGACCUACGACAUUUCCUCTT against Baiap1, the z-score is inactive: 0.46.
To GCACAGGUUCAAGUGGAACTT against Prnd belongs inactive: 0.93.
Take GGAACAAAGACGUAAAAAATT against Olfr1101: the z-score is inactive: 0.272.
For GCCAUGAGGAGAUUCAAGGTT against Klra5, the z-score was inactive: 0.359.
To “GGUCGUGAUAAACAUAUCATT against 2410030J07Rik” belongs inactive: -0.557; to “GGCUUUUUUGUCUUAGGCUTT against A530013C23Rik”, inactive: 0.741; to GGUAUUUAAGUGAUACAUCTT against Ddost, inactive: 0.616.
As for “GGAACUUUAUGUCUCCUACTT against 5730427C23Rik”, the z-score is inactive: 0.596.
Take CCAAAUCUGUUGAUGAUUCTT against Setmar: the z-score is inactive: 1.04.
Take GGUUACAAUCCAUGAGAAATT against Anapc1: the z-score is inactive: -1.13.
To GCACCAUUGACUCAGUUAATT against Semcap2 belongs inactive: 0.129; to GCUACCAACCAUUAAGAUATT against Lipl2, inactive: 1.06; to “GGUAUGGAUCUUUCUGAUATT against D2Ertd145e”, inactive: -0.874.
To GCAAAUCCGAAUGAACCUUTT against Cabp5 belongs inactive: 0.277.
To GGACAUACCCUUAACCAAATT against Plekhb1 belongs inactive: -1.32.
For the sequence GGCAGAACGGAAUAAAAUGTT against Stag2, the z-score is inactive: 1.3.
To “GCUAAGAACGGAUUUCAAGTT against 2900075G08Rik” belongs inactive: 0.517; to CCAGCAAGUAAAACAAGCUTT against Olfr803, inactive: 0.799; to GCGAGGACAUCGUAGAGAATT against Msi1h, inactive: 1.97.
In the case of “GCCAGUGCAUGAAAGAUAUTT against 1110028C15Rik”, the z-score was inactive: 1.58.
To CCCUGUGCGAGAAUAGCAUTT against Pigh belongs inactive: -0.682.
With “CCGUCUAUUAAAUAUCUCGTT against 2010012F05Rik”, the z-score is inactive: 0.582.
To “CCUGCUAAUGUUUGUAAGUTT against 4921515A04Rik” belongs inactive: 0.647; to GCCACUCUAGCUCGUAUUGTT against Des, inactive: 0.163.
To GGAAAUUUCAGUCGAACAGTT against Cdgap belongs inactive: 0.403.
To GGCAAAGUUAUCAAGGAGATT against Slc17a6 belongs inactive: 0.297.
